The nature of this assay: qHTS Assay for Lipid Storage Modulators in Drosophila S3 Cells.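 For cell number change: cells counted by Cell Tracker Red CMTPX staining in the red channel.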 Conditions: BODIPY lipid droplet fluorescence, 18-24 h; for cell number change: measured here: cell count max response, cells fed with added oleic acid. Summed up: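 Drosophila S3 cells loaded with oleic acid (400 uM, as added) and compounds at several concentrations; lipid droplets imaged by 488-nm laser-scanning cytometry, 500–530 nm intensity and object ratio to cell channel. Percent activity normalized to 20 uM Triacsin C.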

[1] abbreviates: measured here: cell number channel AC50, cells fed with added oleic acid.
The mark [2] stands for this setting: measured here: lipid fluorescence (Fed channel) AC50, cells fed with added oleic acid.

The other results are listed elsewhere or left out. Shown are side measurements of this screen, not its main read-out; they come without a call. Most of these compounds were active or inconclusive in the main read-out, so they are no random draw. Potencies come from curve fits of mixed quality, noted in brackets.

Consider `Nc1c(C(=O)Nc2ccc3c(c2)OCCO3)nnn1Cc1cccc(Br)c1`, for which the cell number change is -25%. For the same compound, under setting [1], the AC50 (commonly the concentration giving half of the maximal activity seen) is 0.0058 µM [falling, full curve, poor fit].
As for `CC(C)(C)c1cc(CCC(=O)NCc2cccnc2)cc(C(C)(C)C)c1O`, the cell number change was determined as 11.4%. For the same compound, under setting [2], the AC50 was 29.1 µM [rising, single point].
As to `COc1ccc(CNc2nc3ccccc3n2C(C)C)c(O)c1`, the cell number change is -15.5%. Besides, the half-maximal activity concentration (AC50) under setting [2] was 6.51 µM [rising, single point].
As to `O=C(CC12CC3CC(CC(C3)C1)C2)NC(=S)NCc1ccco1`, the cell number change is -38.8%.
With `O=C(CNC(=O)c1cccc(Br)c1)N/N=C/c1cn[nH]c1-c1ccccc1`, the cell number change is 9.1%. The AC50 under setting [2] was 29.1 µM [rising, single point].
For `CCOc1c(Br)cc(CNCc2cccs2)cc1OC`, the cell number change was -29.7%. The AC50 under setting [2] is 16.4 µM [falling, single point].
On to `CCc1[nH]nc2c1C(c1ccncc1)C(C#N)=C(N)O2` (stereo not given), for which the AC50 under setting [1] is 2.06 µM [rising, partial curve, poor fit].
For the compound `COc1ccc(OC)c(S(=O)(=O)n2cnc3cc(C)c(C)cc32)c1`, the cell number change turned out to be 4.3%. In addition, under setting [2], the AC50 is 0.103 µM [rising, full curve, poor fit].
As to `COc1ccc(OC)c(-c2csc3nnc(SCC(=O)Nc4ccc(NC(C)=O)cc4)n23)c1`, the cell number change is -3.74%. Further, under setting [1], the AC50 is 0.184 µM [rising, full curve, poor fit].
As to `Cc1cccnc1NC(=O)Nc1cccc(C(F)(F)F)c1`, the AC50 is 0.116 µM [rising, full curve, poor fit] under setting [1] and 0.116 µM [rising, full curve, poor fit] under setting [2].
For the compound `COc1ccc(-n2c(SCC(=O)NNC(=O)c3ccc(C)cc3)nnc2-c2ccncc2)cc1`, the cell number change came out at 19.8%. For the same compound, the AC50 under setting [2] is 4.11 µM [rising, partial curve, poor fit].
`CCc1nc2oc3cc(OC)ccc3c(=O)c2c(=O)n1Cc1ccco1`: the cell number change was -5.32%. Besides, the AC50 under setting [2] was 0.13 µM [falling, full curve, poor fit].
For the compound `C=C(C)C(=O)OCC(O)COc1ccc(C(C)(C)c2ccc(OCC(O)COC(=O)C(=C)C)cc2)cc1` (stereo not given), the cell number change came out at 15.4%. Under setting [2], the AC50 was 29.1 µM [rising, single point].
For `Cn1ncc2c(Nc3cccc4ccccc34)ncnc21`, the AC50 was 1.64 µM [rising, partial curve, poor fit] under setting [1] and 0.231 µM [rising, full curve] under setting [2].
As for `COc1ccc(NC(=S)NNC(=S)Nc2cccc(C(F)(F)F)c2)cc1`, the cell number change is -33%. Further, under setting [1], the AC50 was 20.6 µM [falling, single point]. Besides, the AC50 under setting [2] is 20.6 µM [falling, single point].
For the compound `CN(C(=O)CSc1nnc(Cc2cccc3ccccc23)n1N)C1CCS(=O)(=O)C1` (stereo not given), the cell number change worked out at 10.3%. Moreover, the AC50 under setting [2] was 6.51 µM [rising, single point].
Consider `O=C(COc1ccccc1)Nc1ccc2c(c1)nc1n2CCOC1`, for which the cell number change was 3.79%. Under setting [2], the AC50 was 29.1 µM [rising, single point].
For `COc1ccc(Cn2c(-c3ccc(Cl)cc3)c[n+]3ccccc23)cc1`, the cell number change came to 7.24%. The AC50 under setting [2] is 1.84 µM [rising, partial curve].
Take `COc1ccc(-c2nc(-c3ccc4c(c3)OCO4)[nH]c2-c2ccc(OC)cc2)cc1`: the cell number change is -21.2%. Under setting [2], the AC50 is 0.00517 µM [rising, full curve, poor fit].
Regarding `O=C(NC(Cc1ccccc1)C(=O)O)/C(=C\c1ccc(F)cc1)NC(=O)c1ccco1` (stereo not given), the cell number change stood at 7.92%.
On to `O=[N+]([O-])c1ccc(OCCO)nc1`, for which the cell number change was -14%.
Turning to `COC(=O)C/C(O)=C(/N=Nc1cccc(C(F)(F)F)c1)C(=O)OC`, under setting [1], the AC50 was 6.51 µM [falling, single point].
With `CCCCC(=O)Nc1ccc(C(=O)NCCc2ccc(S(N)(=O)=O)cc2)cc1`, the cell number change was found to be 8.1%. Also, the AC50 under setting [1] was 0.146 µM [rising, full curve, poor fit].
For `COc1ccccc1C1CCN(Cc2ccc3ccccc3c2)CC1`, the cell number change is -56.9%. Moreover, the AC50 under setting [1] was 29.1 µM [falling, single point]. The AC50 under setting [2] is 29.1 µM [falling, single point].
Take `O=S(=O)(c1ccccc1)N1CCN(Cc2cccc(Cl)c2)CC1`: the cell number change was determined as 16.1%.
`Cc1cc(=O)oc2cc(OCc3ccc(C(=O)OCC(=O)Nc4ccc(N(C)C)cc4)cc3)ccc12`: the cell number change was -51.3%. In addition, the AC50 under setting [1] is 1.03 µM [falling, full curve].
In the case of `O=C(c1cc(-c2ccc(Br)cc2)nc2ccccc12)N1CCN(c2ccccc2O)CC1`, the AC50 under setting [1] was 0.58 µM [falling, single point].
With `CC(NC(=O)Nc1ccc(Cl)cc1)c1ccccc1` (stereo not given), the cell number change is -1.4%. In addition, the AC50 under setting [2] is 16.4 µM [falling, single point].
Take `COc1cccc(N=Cc2c(O)c3ccccc3oc2=O)c1`: the cell number change stood at 3.59%. Under setting [2], the AC50 was 29.1 µM [falling, single point].
Regarding `O=C(CN1C(=O)COc2ccccc21)Nc1ccc(F)cc1`, the cell number change was -0.759%. Further, the AC50 under setting [2] was 29.1 µM [falling, single point].
As to `CCc1c(O)nc(SCC(=O)N2CCCCC2)n(-c2ccccc2C)c1=O`, the cell number change is -33.8%. For the same compound, the AC50 under setting [1] was 20.6 µM [falling, single point].
As to `Cc1cc(NC(=O)Cn2nc(C(=O)O)c3ccccc3c2=O)c([N+](=O)[O-])cc1C`, the cell number change came out at 22.7%. The AC50 under setting [2] is 11.6 µM [falling, partial curve].
Take `Cc1nn(C)c2c(=O)c(=O)c2n(C)[nH]1`: the AC50 by setting is: under setting [1], 4.11 µM [falling, partial curve]; under setting [2], 1.16 µM [falling, full curve].
With `COc1cc(C(=O)NNC(=O)c2n[nH]c3ccccc23)cc(OC)c1OC`, the cell number change is -14.5%. Moreover, the AC50 under setting [2] is 0.13 µM [rising, partial curve, poor fit].
For the compound `CCOC(=O)c1cc(CC)sc1NC(=O)c1ccc2c(c1)OCCO2`, the cell number change is -3.97%. Moreover, the AC50 under setting [2] is 13 µM [rising, partial curve, poor fit].
With `CC1(C)CC(NC(=O)CC2CCCCC2)CC(C)(C)N1`, the cell number change was 0.833%. In addition, the AC50 under setting [2] is 5.17 µM [falling, full curve].
Turning to `Nc1c(C(=O)NCc2ccc3c(c2)OCO3)nnn1Cc1ccc(Br)cc1`, the cell number change was found to be 33.2%. The AC50 under setting [1] was 0.0731 µM [rising, full curve]. Besides, the AC50 under setting [2] is 0.092 µM [rising, full curve].
Consider `CCOc1cc(Br)c(CC(=O)NC2CCCCCC2)cc1OCC`, for which the cell number change is -7.89%.
`O=S(=O)(NCC(c1ccc2c(c1)OCO2)N1CCOCC1)c1ccc(Cl)cc1` (stereo not given): the cell number change was -5.98%. In addition, the AC50 under setting [2] was 1.3 µM [rising, full curve, poor fit].
As to `CN(C)C(=O)N1CCN(C(=O)c2ccco2)CC1`, the cell number change was -24.8%. Further, the half-maximal activity concentration (AC50) under setting [2] was 25.9 µM [falling, partial curve].
For the compound `CCCCN(C)c1c(N2CCC(C(=O)OCC)CC2)c(=O)c1=O`, the cell number change worked out at 20.8%. The AC50 under setting [2] is 0.731 µM [rising, partial curve, poor fit].
Consider `CCOc1cccc(C(=O)N(Cc2ccc(F)cc2)C2CCS(=O)(=O)C2)c1` (stereo not given), for which the AC50 under setting [2] was 29.1 µM [rising, single point].
As to `NC(=O)CSc1n[nH]c(=O)n1CCc1ccccc1`, the cell number change was determined as 28.4%.
As for `COc1cccc(C(=O)Nc2cc(NC(=O)c3cccs3)ccc2C)c1`, the cell number change was -32%. Further, the AC50 under setting [1] was 16.4 µM [falling, single point].
As for `CCOC(=O)N1CCN(c2ccc(N3C(=O)CCCC3=O)cc2[N+](=O)[O-])CC1`, the cell number change is -2.34%. Also, the AC50 under setting [1] was 0.92 µM [falling, full curve, poor fit]. The AC50 under setting [2] is 0.82 µM [falling, full curve].
For `Cc1ccccc1Nc1nc(N)nc(COC(=O)c2ccc(O)cc2)n1`, the cell number change was 7.09%.
`COC(=O)Cc1c(C)c2c(OCc3nn[nH]n3)cc(C)cc2oc1=O`: the cell number change was 2.03%. The AC50 under setting [2] is 0.731 µM [falling, full curve, poor fit].
As for `Cc1ccc(NC(=S)N2CCN(CCN3C(=O)c4cccc5cccc(c45)C3=O)CC2)cc1`, the cell number change was determined as 1.61%. In addition, under setting [1], the AC50 was 0.731 µM [rising, single point]. For the same compound, under setting [2], the AC50 is 0.58 µM [rising, full curve, poor fit].
Consider `CCOc1ccccc1NC(=O)NC(=O)N(C)S(=O)(=O)c1ccc(C)cc1`, for which the cell number change turned out to be 13.3%. Moreover, under setting [2], the AC50 was 4.61 µM [rising, single point].
Regarding `CNC(=S)N/N=C/c1ccc(-c2ccc(Cl)c([N+](=O)[O-])c2)o1`, the cell number change is -28.8%. Under setting [2], the AC50 is 29.1 µM [falling, single point].
For the compound `CC(NC(=O)C(=O)NCC1CCCO1)c1ccccc1` (stereo not given), the cell number change was 16.6%. Further, the AC50 under setting [2] was 0.092 µM [rising, full curve, poor fit].
Turning to `CCOC(=O)CCc1c(C)nc2cc(-c3ccccc3OC)[nH]n2c1=O`, the cell number change was -47.9%. Moreover, the AC50 under setting [1] is 20.6 µM [falling, partial curve]. Further, the AC50 under setting [2] is 20.6 µM [falling, partial curve].
Regarding `Cc1c(Nc2cc(N3CCCC(C)C3)c3nonc3c2[N+](=O)[O-])c(=O)n(-c2ccccc2)n1C` (stereo not given), the cell number change is 51.5%.
Regarding `COc1ccc(OC)c(-c2csc(NC(=O)Cc3ccccc3)n2)c1`, the cell number change came out at 14.1%. Besides, under setting [2], the AC50 was 0.13 µM [falling, partial curve, poor fit].
For `Oc1ccccc1N1CCN(C(=S)NCc2ccccc2)CC1`, the cell number change amounted to 13.4%.
Consider `COC(=O)CSc1nc2c(c(-c3ccco3)c1C#N)CCCC2`, for which the cell number change was -42.4%. Moreover, the AC50 under setting [1] is 9.2 µM [falling, partial curve]. The AC50 under setting [2] is 20.6 µM [falling, partial curve].
Regarding `COc1ccc(CCNC(=O)C(C)n2nc(C)c3c(C)n(-c4ccc(C)cc4)nc3c2=O)c(OC)c1` (stereo not given), the cell number change was -20.6%. Moreover, under setting [2], the AC50 was 1.84 µM [rising, partial curve].
In the case of `CC1C/C(=N/N=C2/NC(=O)CS2)CC(C)(C)C1` (stereo not given), the cell number change turned out to be 0.0265%.
For the compound `O=C1N(c2ccc3c(c2)OCCO3)C(c2ccccc2)C1(F)F` (stereo not given), the cell number change came out at 22.1%. Besides, under setting [2], the AC50 was 6.51 µM [rising, partial curve].
Regarding `Cc1ccc(NC(=O)c2cncc(Br)c2)c([N+](=O)[O-])c1`, the cell number change came to 22.4%. Further, the half-maximal activity concentration (AC50) under setting [2] is 29.1 µM [rising, single point].
Turning to `COC(=O)c1ccc(NC(=O)CSC2=NC(=O)C(c3ccccc3)C(=O)N2)cc1` (stereo not given), the cell number change was 82.3%. The AC50 under setting [1] is 0.731 µM [rising, full curve, poor fit].

For the origin of these results see PubChem BioAssay AID2685 (National Center for Advancing Translational Sciences (NCATS), 2010).
